Patent EP4299736A2, “HYDROLASES AND USES THEREOF” (Vilnius University, priority 2022, dated 2024)
The name of at least one read-out is uncertain.

Tested on: hydrolase Seq ID No: 3 (metagenomic hydrolase)
Assay: Spectrophotometric assay of hydrolytic activity (kinetic parameters)
Format: biochemical
Conditions: potassium phosphate buffer, pH 7.5, 22 °C; 310 nm (BzdC) or 290 nm (dC)
Method: For the spectrophotometric assay, the reaction was started by adding an appropriate amount of protein to potassium phosphate buffer, pH 7.5 supplemented with 0.3, 0.15, 0.1, 0.075, 0.05, 0.0375, 0.025, 0.0125 mM N^4-benzoyl-2'-deoxycytidine, or 1, 0.8, 0.5, 0.4, 0.25, 0.2, 0.1, 0.05 mM 2'-deoxycytidine. Then, decreases in absorbance at either 310 for N^4-benzoyl-2'-deoxycytidine or 290 nm for 2'-deoxycytidine were recorded at 22 °C. Kinetic parameters (Table x) were calculated using Imfit-py 1.0.2 software fitting the experimental data to a simple Michaelis-Menten kinetics scheme. Table 5. Kinetic parameters of hydrolases. Substrate: BzdC - N4-benzoyl-2'-deoxycytidine; dC-2'-deoxycytidine.

**Q.** `O=C(Nc1ccn([C@H]2C[C@H](O)[C@@H](CO)O2)c(=O)n1)c1ccccc1` [BzdC, N4-benzoyl-2'-deoxycytidine] was tested. Which kcat/Km did it give?
**A.** (81.9 +/- 6.04) × 10^2 M^-1/S^-1
